Measured values from the supplement of paper PMC10849652.
Some of the results follow. Residues, ends and D or L forms follow the SMILES beside them. *: point of attachment. Cbz = O=C(OCc1ccccc1)*

The chains behind the UniProt entries cited, without tags or fusion partners. Where a name states a change or a piece, a line headed by the entry shows the natural chain unless it says otherwise.
UniProt Q7L5Y1: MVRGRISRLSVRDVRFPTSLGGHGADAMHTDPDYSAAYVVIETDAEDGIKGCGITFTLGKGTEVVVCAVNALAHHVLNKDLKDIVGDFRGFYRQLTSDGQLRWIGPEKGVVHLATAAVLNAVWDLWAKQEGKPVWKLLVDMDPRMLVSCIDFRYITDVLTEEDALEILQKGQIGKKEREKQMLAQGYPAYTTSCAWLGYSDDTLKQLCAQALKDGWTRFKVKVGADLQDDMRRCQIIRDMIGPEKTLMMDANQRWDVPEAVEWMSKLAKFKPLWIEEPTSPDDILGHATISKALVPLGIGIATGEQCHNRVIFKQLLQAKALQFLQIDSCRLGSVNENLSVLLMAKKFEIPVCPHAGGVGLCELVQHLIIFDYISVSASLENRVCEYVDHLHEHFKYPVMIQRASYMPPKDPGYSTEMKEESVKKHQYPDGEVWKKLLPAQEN
UniProt O15372, whole entry, looked up: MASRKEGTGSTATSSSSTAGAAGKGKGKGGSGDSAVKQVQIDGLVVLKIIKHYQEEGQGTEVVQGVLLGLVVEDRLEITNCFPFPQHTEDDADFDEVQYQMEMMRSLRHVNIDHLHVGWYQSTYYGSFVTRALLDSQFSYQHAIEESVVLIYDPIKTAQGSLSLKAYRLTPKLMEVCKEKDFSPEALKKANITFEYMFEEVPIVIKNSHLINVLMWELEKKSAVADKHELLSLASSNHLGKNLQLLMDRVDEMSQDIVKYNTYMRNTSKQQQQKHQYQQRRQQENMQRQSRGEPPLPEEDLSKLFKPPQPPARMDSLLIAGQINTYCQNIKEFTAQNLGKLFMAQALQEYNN
UniProt Q9H223: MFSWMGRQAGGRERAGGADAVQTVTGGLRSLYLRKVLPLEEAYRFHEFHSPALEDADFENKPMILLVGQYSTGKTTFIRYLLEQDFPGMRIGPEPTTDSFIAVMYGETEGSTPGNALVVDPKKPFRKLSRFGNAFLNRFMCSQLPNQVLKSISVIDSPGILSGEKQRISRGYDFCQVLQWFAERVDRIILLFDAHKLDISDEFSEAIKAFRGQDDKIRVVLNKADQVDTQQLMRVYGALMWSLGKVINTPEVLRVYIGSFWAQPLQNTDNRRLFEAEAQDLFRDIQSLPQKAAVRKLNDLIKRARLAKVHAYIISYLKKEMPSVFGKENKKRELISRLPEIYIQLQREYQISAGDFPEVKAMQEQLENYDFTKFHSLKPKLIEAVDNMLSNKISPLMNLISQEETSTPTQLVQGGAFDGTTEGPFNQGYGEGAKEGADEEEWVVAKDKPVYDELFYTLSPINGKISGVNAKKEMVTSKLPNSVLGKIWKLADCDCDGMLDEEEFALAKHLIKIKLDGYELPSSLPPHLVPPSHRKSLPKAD
UniProt Q13541: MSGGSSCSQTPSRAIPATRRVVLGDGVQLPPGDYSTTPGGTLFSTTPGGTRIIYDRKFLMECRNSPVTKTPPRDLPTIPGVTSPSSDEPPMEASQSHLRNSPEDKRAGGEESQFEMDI
UniProt Q14152, whole entry, looked up: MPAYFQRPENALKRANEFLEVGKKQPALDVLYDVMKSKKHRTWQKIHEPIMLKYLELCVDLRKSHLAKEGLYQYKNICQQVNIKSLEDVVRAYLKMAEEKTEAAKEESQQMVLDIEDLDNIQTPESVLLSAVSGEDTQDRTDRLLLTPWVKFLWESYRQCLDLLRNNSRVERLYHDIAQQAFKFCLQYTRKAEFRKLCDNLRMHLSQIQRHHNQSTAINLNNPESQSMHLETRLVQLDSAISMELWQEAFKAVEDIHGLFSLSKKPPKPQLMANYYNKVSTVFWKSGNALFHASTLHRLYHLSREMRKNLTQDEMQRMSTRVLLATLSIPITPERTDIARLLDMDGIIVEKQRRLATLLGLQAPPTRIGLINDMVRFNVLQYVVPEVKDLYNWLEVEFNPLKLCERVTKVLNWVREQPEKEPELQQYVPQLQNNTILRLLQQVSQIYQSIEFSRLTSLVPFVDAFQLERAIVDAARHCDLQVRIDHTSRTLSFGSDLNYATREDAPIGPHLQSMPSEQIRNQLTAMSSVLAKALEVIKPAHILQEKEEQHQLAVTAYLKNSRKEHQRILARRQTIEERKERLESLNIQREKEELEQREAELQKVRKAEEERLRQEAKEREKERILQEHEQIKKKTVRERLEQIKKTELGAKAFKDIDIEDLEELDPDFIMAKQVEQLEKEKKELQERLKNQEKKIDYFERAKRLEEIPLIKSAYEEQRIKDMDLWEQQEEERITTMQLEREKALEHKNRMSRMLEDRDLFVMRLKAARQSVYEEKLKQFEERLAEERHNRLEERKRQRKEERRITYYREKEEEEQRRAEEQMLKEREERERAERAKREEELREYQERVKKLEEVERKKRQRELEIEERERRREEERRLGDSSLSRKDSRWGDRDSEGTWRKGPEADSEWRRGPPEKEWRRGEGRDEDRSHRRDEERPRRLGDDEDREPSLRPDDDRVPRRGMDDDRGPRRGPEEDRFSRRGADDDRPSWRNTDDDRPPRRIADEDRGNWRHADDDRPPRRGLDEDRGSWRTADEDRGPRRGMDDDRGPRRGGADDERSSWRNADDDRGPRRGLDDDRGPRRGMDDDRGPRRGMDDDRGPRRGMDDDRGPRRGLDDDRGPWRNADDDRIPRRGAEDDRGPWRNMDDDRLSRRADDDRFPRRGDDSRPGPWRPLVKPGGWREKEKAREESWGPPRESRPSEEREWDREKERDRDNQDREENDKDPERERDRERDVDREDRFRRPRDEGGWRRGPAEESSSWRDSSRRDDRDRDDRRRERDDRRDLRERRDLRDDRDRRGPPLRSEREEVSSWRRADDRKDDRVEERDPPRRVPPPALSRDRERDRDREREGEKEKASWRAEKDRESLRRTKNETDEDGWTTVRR
UniProt Q9BY44: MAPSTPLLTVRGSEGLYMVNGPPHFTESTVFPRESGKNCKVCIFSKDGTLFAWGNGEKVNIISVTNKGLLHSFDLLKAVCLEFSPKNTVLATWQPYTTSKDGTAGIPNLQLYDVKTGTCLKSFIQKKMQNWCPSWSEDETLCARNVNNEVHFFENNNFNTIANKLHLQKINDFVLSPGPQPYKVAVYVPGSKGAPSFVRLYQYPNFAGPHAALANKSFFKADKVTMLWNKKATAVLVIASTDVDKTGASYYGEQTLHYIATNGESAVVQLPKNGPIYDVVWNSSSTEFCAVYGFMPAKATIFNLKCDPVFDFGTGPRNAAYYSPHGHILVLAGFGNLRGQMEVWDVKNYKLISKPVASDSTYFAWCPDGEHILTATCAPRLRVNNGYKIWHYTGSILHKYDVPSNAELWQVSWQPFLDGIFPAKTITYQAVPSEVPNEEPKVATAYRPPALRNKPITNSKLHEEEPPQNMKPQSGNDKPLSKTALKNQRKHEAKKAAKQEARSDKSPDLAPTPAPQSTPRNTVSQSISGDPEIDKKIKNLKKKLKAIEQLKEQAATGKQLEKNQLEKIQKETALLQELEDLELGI
UniProt Q13542: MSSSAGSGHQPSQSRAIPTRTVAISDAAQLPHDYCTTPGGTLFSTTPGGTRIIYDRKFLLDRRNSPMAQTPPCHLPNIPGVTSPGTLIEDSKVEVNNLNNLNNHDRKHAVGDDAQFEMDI
UniProt P60228, whole entry, looked up: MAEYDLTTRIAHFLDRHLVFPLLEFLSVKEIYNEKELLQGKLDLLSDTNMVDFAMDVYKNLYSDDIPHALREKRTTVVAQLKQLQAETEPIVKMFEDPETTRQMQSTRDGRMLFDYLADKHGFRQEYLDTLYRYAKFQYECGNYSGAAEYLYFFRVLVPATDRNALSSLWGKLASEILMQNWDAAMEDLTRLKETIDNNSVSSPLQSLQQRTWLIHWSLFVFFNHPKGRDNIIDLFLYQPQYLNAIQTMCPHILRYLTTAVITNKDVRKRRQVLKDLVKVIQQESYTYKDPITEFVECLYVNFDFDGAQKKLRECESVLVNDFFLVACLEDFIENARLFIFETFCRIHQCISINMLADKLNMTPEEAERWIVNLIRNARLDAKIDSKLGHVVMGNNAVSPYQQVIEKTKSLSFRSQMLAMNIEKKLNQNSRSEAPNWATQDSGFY
UniProt O60841: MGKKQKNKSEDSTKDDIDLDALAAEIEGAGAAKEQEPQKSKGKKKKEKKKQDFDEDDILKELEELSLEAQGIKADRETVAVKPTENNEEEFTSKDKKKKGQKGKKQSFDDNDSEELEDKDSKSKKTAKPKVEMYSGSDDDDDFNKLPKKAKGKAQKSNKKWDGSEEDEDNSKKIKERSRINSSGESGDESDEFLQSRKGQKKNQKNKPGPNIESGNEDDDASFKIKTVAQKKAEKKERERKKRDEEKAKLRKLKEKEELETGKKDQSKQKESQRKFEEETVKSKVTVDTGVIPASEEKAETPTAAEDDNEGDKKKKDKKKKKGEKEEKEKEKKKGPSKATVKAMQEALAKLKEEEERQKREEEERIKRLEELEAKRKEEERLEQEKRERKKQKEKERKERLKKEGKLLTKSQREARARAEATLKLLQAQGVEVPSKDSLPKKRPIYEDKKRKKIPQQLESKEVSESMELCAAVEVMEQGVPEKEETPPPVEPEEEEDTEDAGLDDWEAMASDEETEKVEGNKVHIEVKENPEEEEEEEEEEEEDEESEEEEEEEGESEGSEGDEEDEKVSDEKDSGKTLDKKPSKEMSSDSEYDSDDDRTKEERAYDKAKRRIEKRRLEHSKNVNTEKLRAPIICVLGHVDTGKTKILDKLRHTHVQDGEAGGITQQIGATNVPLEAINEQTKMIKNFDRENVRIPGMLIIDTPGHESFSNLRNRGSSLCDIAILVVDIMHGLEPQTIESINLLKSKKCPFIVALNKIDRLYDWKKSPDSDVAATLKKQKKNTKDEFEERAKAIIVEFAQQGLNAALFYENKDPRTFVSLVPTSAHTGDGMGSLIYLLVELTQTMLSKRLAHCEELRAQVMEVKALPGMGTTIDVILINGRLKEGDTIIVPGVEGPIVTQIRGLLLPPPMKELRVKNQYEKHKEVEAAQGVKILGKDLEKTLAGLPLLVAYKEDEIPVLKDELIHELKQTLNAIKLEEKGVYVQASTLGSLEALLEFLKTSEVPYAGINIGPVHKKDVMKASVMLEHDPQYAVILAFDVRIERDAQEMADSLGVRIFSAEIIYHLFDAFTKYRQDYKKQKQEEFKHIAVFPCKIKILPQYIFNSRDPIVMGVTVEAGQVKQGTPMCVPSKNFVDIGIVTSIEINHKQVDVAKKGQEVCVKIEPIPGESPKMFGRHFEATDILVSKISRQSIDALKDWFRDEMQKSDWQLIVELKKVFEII
UniProt O00303, whole entry, looked up: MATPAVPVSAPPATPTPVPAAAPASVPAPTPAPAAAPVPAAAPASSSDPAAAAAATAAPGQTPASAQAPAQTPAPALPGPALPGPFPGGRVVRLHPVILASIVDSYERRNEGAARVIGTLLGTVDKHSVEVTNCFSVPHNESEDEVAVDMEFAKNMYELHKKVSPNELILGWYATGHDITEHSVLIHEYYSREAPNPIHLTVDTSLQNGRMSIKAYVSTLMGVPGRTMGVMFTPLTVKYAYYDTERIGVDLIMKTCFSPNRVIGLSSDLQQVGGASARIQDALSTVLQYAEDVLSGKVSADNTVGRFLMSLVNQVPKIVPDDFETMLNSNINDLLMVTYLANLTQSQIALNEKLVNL
UniProt Q96EB1: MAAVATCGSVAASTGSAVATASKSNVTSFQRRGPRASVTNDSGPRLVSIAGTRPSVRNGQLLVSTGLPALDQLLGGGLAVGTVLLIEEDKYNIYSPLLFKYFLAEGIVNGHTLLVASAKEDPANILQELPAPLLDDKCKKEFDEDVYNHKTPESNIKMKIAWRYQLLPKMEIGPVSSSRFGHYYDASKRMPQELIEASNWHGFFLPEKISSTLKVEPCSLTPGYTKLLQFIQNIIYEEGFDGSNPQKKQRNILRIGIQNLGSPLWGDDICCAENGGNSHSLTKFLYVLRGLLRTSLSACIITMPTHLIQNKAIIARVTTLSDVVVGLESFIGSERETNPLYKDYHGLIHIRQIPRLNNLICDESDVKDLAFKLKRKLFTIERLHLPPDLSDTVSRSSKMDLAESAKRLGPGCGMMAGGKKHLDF
UniProt P49770: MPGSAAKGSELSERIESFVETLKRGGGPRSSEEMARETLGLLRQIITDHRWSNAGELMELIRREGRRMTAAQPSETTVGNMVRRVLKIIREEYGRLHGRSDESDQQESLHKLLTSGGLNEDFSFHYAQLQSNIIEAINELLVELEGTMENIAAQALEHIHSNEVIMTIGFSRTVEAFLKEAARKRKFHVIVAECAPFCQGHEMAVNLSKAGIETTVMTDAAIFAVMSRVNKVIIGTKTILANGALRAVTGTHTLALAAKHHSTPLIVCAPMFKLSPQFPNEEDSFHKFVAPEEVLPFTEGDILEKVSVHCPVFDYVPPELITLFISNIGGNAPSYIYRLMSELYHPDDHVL
UniProt P54852: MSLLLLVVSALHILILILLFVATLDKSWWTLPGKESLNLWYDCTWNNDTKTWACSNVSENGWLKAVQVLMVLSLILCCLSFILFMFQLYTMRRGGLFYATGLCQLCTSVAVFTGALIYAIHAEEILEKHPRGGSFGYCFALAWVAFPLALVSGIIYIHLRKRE

Legend:
Assay in all cases: log2 fold change, soluble protein after heating vs DMSO (PISA); higher = thermal stabilisation; K562 cells, 10 uM, 30 min; active = over 0.2 and 3.5 SD of the protein, either way, in both replicates (recomputed)
erlotinib = compound: C#Cc1cccc(Nc2ncnc3cc(OCCOC)c(OCCOC)cc23)c1 [erlotinib]
Procedure, shortened: (§1)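 For each measurement, 10 μM compound was applied for 30 min to K562 cells at 2×10^6 cells/mL. Aliquots were heated for 3 min across 48°C-58°C, pooled, and extracted in PBS with 0.5% NP-40 at 4°C; the supernatant after 21,000xg for 90 min was soluble protein. This was quantified by TMTpro 16plex LC-MS/MS with channel sums equalised, and thermal stability was reported relative to control samples from duplicates, on a log2 fold-change scale.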

[1] = compound: C/C(=N\NC(=O)C1=CC(=CC=C1)S(=O)(=O)N2CCOCC2)/C3=C(C=CC(=C3)Cl)O
Procedure, shortened: as §1

[2] = compound: C1=CC(=C(C=C1Cl)C2=NC3=NC=CN=C3C(=N2)NC4=CC=NC=C4)F
Procedure, shortened: as §1

[3] = compound: C1=CC(=CC=C1C2=NC3=C(N2)C=C(C=C3)C(=O)N)OC4=CC=C(C=C4)Cl
Procedure, shortened: as §1

[4] = compound: C1=CC2=C(C=CC(=C2)/C=C\3/C(=O)NC(=NCC4=CC=CS4)S3)N=C1
Procedure, shortened: as §1

[5] = compound: C1=CC2=NC=CN=C2C=C1/C=C/3\C(=O)NC(=O)S3
Procedure, shortened: as §1

[6] = compound: C1=CC=C(C=C1)C2=NC(=C(N2)C3=CC=NC=C3)C4=CC(=C(C=C4)Cl)O
Procedure, shortened: as §1

[7] = compound: C1=CC=C2C(=C1)C3=NNC4=CC=CC(=C43)C2=O
Procedure, shortened: as §1

[8] = compound: C1CCN(C1)C(=O)NC2=CC=CC(=C2)NC3=NC=C(C(=N3)NCCC4=CN=CN4)Br
Procedure, shortened: as §1

[9] = compound: C1CN(CCC1(CC2=CC=C(C=C2)Cl)N)C3=NC=NC4=C3C=CN4
Procedure, shortened: as §1

IRAK-1-4 Inhibitor I = compound: C1COCCN1CCN2C3=CC=CC=C3N=C2NC(=O)C4=CC(=CC=C4)[N+](=O)[O-] [IRAK-1-4 Inhibitor I]
Procedure, shortened: as §1

ibrutinib = compound: C=CC(=O)N1CCC[C@@H](n2nc(-c3ccc(Oc4ccccc4)cc3)c3c(N)ncnc32)C1 [ibrutinib]
Procedure, shortened: as §1

[10] = compound: CC(=O)c1cnc2ccc(-c3cc(Cl)c(O)c(Cl)c3)nc2c1N[C@H]1CC[C@H](CN(C)C)CC1
Procedure, shortened: as §1

ralimetinib = compound: CC(C)(C)Cn1c(N)nc2ccc(-c3[nH]c(C(C)(C)C)nc3-c3ccc(F)cc3)nc21 [ralimetinib]
Procedure, shortened: as §1

[11] = compound: CC(C)(O)CC(=O)NCCn1ccc2ncnc(Nc3ccc(Oc4cccc(C(F)(F)F)c4)c(Cl)c3)c21
Procedure, shortened: as §1

[12] = compound: CC(C)C1=C2N=C(C=C(N2N=C1)NCC3=CC=CC=C3)NCCCCCCN
Procedure, shortened: as §1

[13] = compound: CC(C)C[C@@H](C=O)NC(=O)[C@H](CC(C)C)NC(=O)[C@H](CC(C)C)NC(=O)OCc1ccccc1
Procedure, shortened: as §1

pinometostat = compound: CC(C)N(C[C@H]1O[C@@H](n2cnc3c(N)ncnc32)[C@H](O)[C@@H]1O)[C@H]1C[C@@H](CCc2nc3cc(C(C)(C)C)ccc3[nH]2)C1 [pinometostat]
Procedure, shortened: as §1

[14] = compound: CC1=C(C(CC(=O)N1)C2=CC=C(C=C2)C(F)(F)F)C(=O)NC3=C(C=C4C(=C3)C=NN4)F
Procedure, shortened: as §1

[15] = compound: CC1=C(C2=C(C=C1)C(=O)C3=CC=CC=C3N2CCCN)C
Procedure, shortened: as §1

Measured: log2 fold change

ENOSF1 (UniProt Q7L5Y1)
inactive: erlotinib 0 | [1] 0.008 | [2] 0.021 | [3] 0.02 | [4] -0.065 | [5] -0.051 | [6] 0.028 | [7] 0.035 | [8] 0.032 | [9] 0.042 | IRAK-1-4 Inhibitor I 0.025 | ibrutinib 0.038 | [10] -0.036 | ralimetinib -0.01 | [11] -0.087 | [12] -0.021 | [13] -0.043 | pinometostat -0.02 | [14] 0.004 | [15] -0.019

EIF3H (UniProt O15372)
inactive: erlotinib -0.041 | [1] 0.05 | [2] -0.04 | [3] -0.007 | [4] -0.024 | [5] 0.058 | [6] 0.006 | [7] -0.021 | [8] 0.015 | [9] -0.068 | IRAK-1-4 Inhibitor I -0.069 | ibrutinib -0.064 | [10] 0.02 | ralimetinib 0.075 | [11] -0.072 | [12] -0.068 | [13] 0.009 | pinometostat 0.039 | [14] 0.046 | [15] -0.06

EMC4 (UniProt Q5J8M3)
inactive: erlotinib 0.016 | [1] 0.038 | [2] 0.035 | [3] 0.028 | [4] 0.022 | [5] 0.095 | [6] 0.061 | [7] -0.02 | [8] -0.065 | [9] -0.008 | IRAK-1-4 Inhibitor I -0.007 | ibrutinib -0.015 | [10] -0.012 | ralimetinib -0.118 | [11] -0.049 | [12] 0.056 | [13] 0.007 | pinometostat -0.002 | [14] 0.043 | [15] 0.104

EML3 isoform 2 (UniProt Q32P44)
inactive: erlotinib 0.059 | [1] -0.089 | [2] -0.251 | [3] -0.002 | [4] -0.04 | [5] -0.044 | [6] 0.061 | [7] -0.055 | [8] 0.004 | [9] -0.101 | IRAK-1-4 Inhibitor I -0.01 | ibrutinib 0.074 | [10] 0 | ralimetinib 0.34 | [11] 0.032 | [12] 0.033 | [13] 0.111 | pinometostat 0.272 | [14] 0.069 | [15] 0.055

EHD4 (UniProt Q9H223)
inactive: erlotinib 0.063 | [1] 0.005 | [2] 0.049 | [3] 0.008 | [4] 0.009 | [5] 0.011 | [6] 0.008 | [7] 0.029 | [8] 0 | [9] 0.013 | IRAK-1-4 Inhibitor I 0.044 | ibrutinib -0.01 | [10] -0.044 | ralimetinib -0.045 | [11] -0.041 | [12] -0.018 | [13] 0.04 | pinometostat 0.016 | [14] 0.002 | [15] 0.01

EIF4EBP1 (UniProt Q13541)
inactive: erlotinib 0.016 | [1] 0.043 | [2] -0.044 | [3] 0.023 | [4] 0.05 | [5] 0.003 | [6] -0.023 | [7] 0.063 | [8] -0.113 | [9] 0.039 | IRAK-1-4 Inhibitor I 0.02 | ibrutinib 0.068 | [10] -0.22 | ralimetinib -0.072 | [11] -0.058 | [12] 0.024 | [13] 0.014 | pinometostat -0.031 | [14] 0.005 | [15] 0.112

EIF3A (UniProt Q14152)
inactive: erlotinib 0.021 | [1] 0.129 | [2] -0.041 | [3] -0.047 | [4] 0.033 | [5] -0.019 | [6] 0.028 | [7] 0.042 | [8] -0.001 | [9] -0.132 | IRAK-1-4 Inhibitor I -0.191 | ibrutinib -0.029 | [10] 0.027 | ralimetinib 0.082 | [11] -0.081 | [12] -0.269 | [13] 0.078 | pinometostat 0.134 | [14] 0.019 | [15] -0.058

EIF2A (UniProt Q9BY44)
inactive: erlotinib -0.043 | [1] -0.04 | [2] -0.098 | [3] 0.03 | [4] -0.068 | [5] -0.016 | [6] 0.019 | [7] 0.012 | [8] -0.021 | [9] -0.059 | IRAK-1-4 Inhibitor I -0.026 | ibrutinib 0.024 | [10] 0.044 | ralimetinib 0.083 | [11] 0.016 | [12] 0.043 | [13] 0.01 | pinometostat 0.072 | [14] -0.019 | [15] -0.136

EIF4EBP2 (UniProt Q13542)
inactive: erlotinib -0.068 | [1] 0.022 | [2] 0.154 | [3] 0.033 | [4] -0.059 | [5] 0.099 | [6] 0.079 | [7] 0.038 | [8] -0.059 | [9] -0.05 | IRAK-1-4 Inhibitor I -0.139 | ibrutinib 0.038 | [10] -0.106 | ralimetinib -0.165 | [11] -0.238 | [12] 0.141 | [13] 0.012 | pinometostat 0.044 | [14] 0.022 | [15] 0.066

EIF3E (UniProt P60228)
inactive: erlotinib 0.039 | [1] 0.099 | [2] -0.033 | [3] -0.022 | [4] 0.035 | [5] -0.027 | [6] 0.098 | [7] 0.006 | [8] -0.013 | [9] -0.171 | IRAK-1-4 Inhibitor I -0.286 | ibrutinib -0.05 | [10] -0.089 | ralimetinib 0.21 | [11] -0.04 | [12] -0.238 | [13] 0.136 | pinometostat 0.207 | [14] 0.006 | [15] -0.063

EIF5B (UniProt O60841)
inactive: erlotinib -0.01 | [1] 0.032 | [2] -0.089 | [3] -0.024 | [4] 0.087 | [5] -0.075 | [6] 0.059 | [7] 0.062 | [8] -0.025 | [9] -0.094 | IRAK-1-4 Inhibitor I -0.056 | ibrutinib -0.032 | [10] -0.048 | ralimetinib 0.125 | [11] 0.016 | [12] -0.013 | [13] 0.079 | pinometostat 0.145 | [14] -0.031 | [15] -0.086

EIF3F (UniProt O00303)
inactive: erlotinib 0.015 | [1] 0.096 | [2] 0.004 | [3] 0.006 | [4] 0.028 | [5] 0.034 | [6] 0.103 | [7] 0.006 | [8] -0.01 | [9] -0.108 | IRAK-1-4 Inhibitor I -0.118 | ibrutinib -0.051 | [10] 0.023 | ralimetinib 0.068 | [11] -0.038 | [12] -0.131 | [13] -0.042 | pinometostat 0.047 | [14] 0 | [15] -0.007

ELP4 (UniProt Q96EB1)
inactive: erlotinib 0.018 | [1] -0.073 | [2] -0.034 | [3] 0.06 | [4] -0.014 | [5] -0.002 | [6] -0.03 | [7] -0.063 | [8] -0.039 | [9] 0.055 | IRAK-1-4 Inhibitor I -0.007 | ibrutinib 0.062 | [10] 0.044 | ralimetinib -0.056 | [11] -0.04 | [12] 0.107 | [13] 0.02 | pinometostat 0.085 | [14] -0.029 | [15] 0.104

2 consecutive records out of the list so far, quoted:
EIF3A (UniProt Q14152)
inactive: erlotinib 0.021 | [1] 0.129 | [2] -0.041 | [3] -0.047 | [4] 0.033 | [5] -0.019 | [6] 0.028 | [7] 0.042 | [8] -0.001 | [9] -0.132 | IRAK-1-4 Inhibitor I -0.191 | ibrutinib -0.029 | [10] 0.027 | ralimetinib 0.082 | [11] -0.081 | [12] -0.269 | [13] 0.078 | pinometostat 0.134 | [14] 0.019 | [15] -0.058

EIF2A (UniProt Q9BY44)
inactive: erlotinib -0.043 | [1] -0.04 | [2] -0.098 | [3] 0.03 | [4] -0.068 | [5] -0.016 | [6] 0.019 | [7] 0.012 | [8] -0.021 | [9] -0.059 | IRAK-1-4 Inhibitor I -0.026 | ibrutinib 0.024 | [10] 0.044 | ralimetinib 0.083 | [11] 0.016 | [12] 0.043 | [13] 0.01 | pinometostat 0.072 | [14] -0.019 | [15] -0.136

Going on with the list:

ELOB (UniProt Q15370)
inactive: erlotinib -0.02 | [1] 0.052 | [2] 0.084 | [3] -0.01 | [4] 0.075 | [5] 0.061 | [6] 0.014 | [7] -0.027 | [8] 0.017 | [9] 0.006 | IRAK-1-4 Inhibitor I 0.011 | ibrutinib -0.03 | [10] 0 | ralimetinib -0.093 | [11] -0.043 | [12] 0.013 | [13] -0.025 | pinometostat -0.006 | [14] 0.015 | [15] 0.093

EIF2B2 (UniProt P49770)
inactive: erlotinib -0.039 | [1] 0.018 | [2] -0.009 | [3] 0.008 | [4] -0.001 | [5] 0.009 | [6] 0.032 | [7] -0.046 | [8] -0.006 | [9] -0.054 | IRAK-1-4 Inhibitor I 0.002 | ibrutinib -0.016 | [10] -0.004 | ralimetinib -0.002 | [11] -0.038 | [12] -0.074 | [13] -0.01 | pinometostat 0.018 | [14] -0.032 | [15] 0.011

EMP3 (UniProt P54852)
inactive: erlotinib -0.06 | [1] -0.032 | [2] -0.062 | [3] -0.021 | [4] 0.016 | [5] 0.031 | [6] 0.058 | [7] -0.055 | [8] -0.041 | [9] 0.138 | IRAK-1-4 Inhibitor I -0.016 | ibrutinib 0.025 | [10] -0.087 | ralimetinib -0.119 | [11] 0.034 | [12] 0.166 | [13] -0.002 | pinometostat -0.019 | [14] -0.091 | [15] 0.002
